Laboratory results reported in PMC5253665.
No constants are given. Whether binding was seen depends on the method and setting. Binding seen in cells or lysates may run through a third protein. Some results given as binding are weak or reduced against the parent protein; the word gives no strength.

The chains behind the UniProt entries cited, without tags or fusion partners. Residues count along the entry.
UniProt P29459, residues 23-219: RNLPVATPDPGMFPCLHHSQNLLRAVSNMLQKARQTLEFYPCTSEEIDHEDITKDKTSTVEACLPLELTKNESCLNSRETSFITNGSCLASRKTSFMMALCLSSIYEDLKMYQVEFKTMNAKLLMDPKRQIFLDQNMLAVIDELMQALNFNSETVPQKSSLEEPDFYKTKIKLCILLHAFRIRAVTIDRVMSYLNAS

Target: P35 subunit of IL-35 (human (endogenous in PDAC tumour tissue and primary PDAC cell lines)) (UniProt P29459)
Experiment: co-IP; endogenous proteins in lysates of PDAC tumour tissue (three patients) and of PDAC primary cell lines; immunoprecipitation with antibodies to P35, EBI3, P28 or P40, western blot; the supernatant left after immunoprecipitation was blotted too

B1: EBV-induced gene 3 (EBI3) subunit of IL-35 (protein, UniProt Q14213 21-229)
chain: RKGPPAALTLPRVQCRASRYPIAVDCSWTLPPAPNSTSPVSFIATYRLGMAARGHSWPCLQQTPTSTSCTITDVQLFSMAPYVLNVTAVHPWGSSSSFVPFITEHIIKPDPPEGVRLSPLAERQLQVQWEPPGSWPFPEIFSLKYWIRYKRQGAARFHRVGPIEATSFILRAVRPRARYYVQVAAQDLTDYGELSDWSLPATATMSLGK
- binding: binds
